Results are given in words; binding and its absence hold for the method and conditions named. Some entries that bind do so weakly or less than the wild type. Sequences can lack the tags named with a protein.
B1: StP1.RD1.G9.H5 (antibody, V domains shown)
VH: QVQLQQSGPELVQPGASVKISCRASGYSFTSYYIHWVKQRPGQGLEWIGWIFPGSGNTKYNEKFRGKATLTADTSSSTAYTQVSSLTSEDSAVYFCARKSPYGNYAMDYWGQGTSVTVSS
VL: DILLTQSPAILSVSPGERVSFSCRASQSIGTSIHWYQQRTNGSPRLLIKSASESISGIPSRFSGSGSGTDFTLSINSVESEDIADYYCQQSNSWPYTFGGGTKLEIKRADAAPTVS
notes: also called purified monoclonal antibody from hybridoma cell-line StP1.RD1.G9.H5
B2: StP1.RE2.D7b.B5 (antibody, V domains shown)
VH: QVQLQQSGPELVKPGASVKISCKASGYSFTSYYIHWVKQSPGQGLEWIGWIFPGSGNTKYNEKFKGKATLTADTSSSTAYMQLSSLTSEDSAVYFCARRGTTRDALDYWGQGTSVTVSS
VL: DILLTQSPAILSVSPGERVSFSCRASQSIGTSIHWFQQRTNGSPRVLIKYASQSISGIPSRFSGSGSGTDFTLSINSVESEDIADYYCQQSYTWPFTFGSGTKLAIKR
B3: SVX-2001A (antibody)
heavy: QVQLQQSGPELVQPGASVKISCRASGYSFTSYYIHWVKQRPGQGLEWIGWIFPGSGNTKYNEKFRGKATLTADTSSSTAYTQVSSLTSEDSAVYFCARKSPYGNYAMDYWGQGTSVTVSSASTTAPSVFPLAPSCGSTSGSTVALACLVSGYFPEPVTVSWNSGSLTSGVHTFPSVLQSSGLHSLSSMVTVPSSRWPSETFTCNVVHPASNTKVDKPVFNECRCTDTPPCPVPEPLGGPSVLIFPPKPKDILRITRTPEVTCVVLDLGREDPEVQISWFVDGKEVHTAKTQSREQQFNGTYRVVSVLPIEHQDWLTGKEFKCRVNHIDLPSPIERTISKARGRAHKPSVYVLPPSPKELSSSDTVSITCLIKDFYPPDIDVEWQSNGQQEPERKHRMTPPQLDEDGSYFLYSKLSVDKSRWQQGDPFTCAVMHETLQNHYTDLSLSHSPGK
light: DILLTQSPAILSVSPGERVSFSCRASQSIGTSIHWYQQRTNGSPRLLIKSASESISGIPSRFSGSGSGTDFTLSINSVESEDIADYYCQQSNSWPYTFGGGTKLEIKRNDAQPAVYLFQPSPDQLHTGSASVVCLLNSFYPKDINVKWKVDGVIQDTGIQESVTEQDKDSTYSLSSTLTMSSTEYLSHELYSCEITHKSLPSTLIKSFQRSECQRVD
notes: also called chimeric dog IgGA, k antibody derived from StP1.RD1.G9.H5
B4: SVX-2001B (antibody)
heavy: QVQLQQSGPELVQPGASVKISCRASGYSFTSYYIHWVKQRPGQGLEWIGWIFPGSGNTKYNEKFRGKATLTADTSSSTAYTQVSSLTSEDSAVYFCARKSPYGNYAMDYWGQGTSVTVSSASTTAPSVFPLAPSCGSTSGSTVALACLVSGYFPEPVTVSWNSGSLTSGVHTFPSVLQSSGLYSLSSMVTVPSSRWPSETFTCNVAHPASKTKVDKPVPKRENGRVPRPPDCPKCPAPEMLGGPSVFIFPPKPKDTLLIARTPEVTCVVVDLDPEDPEVQISWFVDGKQMQTAKTQPREEQFNGTYRVVSVLPIGHQDWLKGKQFTCKVNNKALPSPIERTISKARGQAHQPSVYVLPPSREELSKNTVSLTCLIKDFFPPDIDVEWQSNGQQEPESKYRTTPPQLDEDGSYFLYSKLSVDKSRWQRGDTFICAVMHEALHNHYTQESLSHSPGK
light: B3 light
notes: also called chimeric dog IgGB, k antibody derived from StP1.RD1.G9.H5
B5: SVX-2001C (antibody)
heavy: QVQLQQSGPELVQPGASVKISCRASGYSFTSYYIHWVKQRPGQGLEWIGWIFPGSGNTKYNEKFRGKATLTADTSSSTAYTQVSSLTSEDSAVYFCARKSPYGNYAMDYWGQGTSVTVSSASTTAPSVFPLAPSCGSQSGSTVALACLVSGYIPEPVTVSWNSVSLTSGVHTFPSVLQSSGLYSLSSMVTVPSSRWPSETFTCNVAHPATNTKVDKPVAKECECKCNCNNCPCPGCGLLGGPSVFIFPPKPKDILVTARTPTVTCVVVDLDPENPEVQISWFVDSKQVQTANTQPREEQSNGTYRVVSVLPIGHQDWLSGKQFKCKVNNKALPSPIEEIISKTPGQAHQPNVYVLPPSRDEMSKNTVTLTCLVKDFFPPEIDVEWQSNGQQEPESKYRMTPPQLDEDGSYFLYSKLSVDKSRWQRGDTFICAVMHEALHNHYTQISLSHSPGK
light: B3 light
notes: also called chimeric dog IgGC, k antibody derived from StP1.RD1.G9.H5
B6: SVX-2001D (antibody)
heavy: QVQLQQSGPELVQPGASVKISCRASGYSFTSYYIHWVKQRPGQGLEWIGWIFPGSGNTKYNEKFRGKATLTADTSSSTAYTQVSSLTSEDSAVYFCARKSPYGNYAMDYWGQGTSVTVSSASTTAPSVFPLAPSCGSTSGSTVALACLVSGYFPEPVTVSWNSGSLTSGVHTFPSVLQSSGLYSLSSTVTVPSSRWPSETFTCNVVHPASNTKVDKPVPKESTCKCISPCPVPESLGGPSVFIFPPKPKDILRITRTPEITCVVLDLGREDPEVQISWFVDGKEVHTAKTQPREQQFNSTYRVVSVLPIEHQDWLTGKEFKCRVNHIGLPSPIERTISKARGQAHQPSVYVLPPSPKELSSSDTVTLTCLIKDFFPPEIDVEWQSNGQPEPESKYHTTAPQLDEDGSYFLYSKLSVDKSRWQQGDTFTCAVMHEALQNHYTDLSLSHSPGK
light: B3 light
notes: also called chimeric dog IgGD, k antibody derived from StP1.RD1.G9.H5

How the values were obtained:
[1] = molecular target: T1, Recombinant canine CD40 extracellular domain with human IgG1 Fc domain tag (canine; human) (UniProt Q7YRL5); test: pair-wise SPR, caCD40-Fc immobilised
T1 sequence (looked up): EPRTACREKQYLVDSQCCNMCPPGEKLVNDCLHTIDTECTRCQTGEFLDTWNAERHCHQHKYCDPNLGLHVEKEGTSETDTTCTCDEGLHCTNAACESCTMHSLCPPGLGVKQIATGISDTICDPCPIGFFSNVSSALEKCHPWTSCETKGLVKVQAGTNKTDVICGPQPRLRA

[2] = molecular target: T1, Recombinant canine CD40 extracellular domain with human IgG1 Fc domain tag (canine; human); test: restates the SPR results, canine CD40-Fc immobilised
[3] = molecular target: T1, Recombinant canine CD40 extracellular domain with human IgG1 Fc domain tag (canine; human); test: SPR, canine CD40-Fc immobilised (kinetics and binding analysis)
[4] = molecular target: T1, Recombinant canine CD40 extracellular domain with human IgG1 Fc domain tag (canine; human); test: SPR pair-wise binding, caCD40-Fc on the chip, 180 s contact
[5] = molecular target: T1, Recombinant canine CD40 extracellular domain with human IgG1 Fc domain tag (canine; human); test: SPR (Biacore T200), caCD40-Fc immobilised, purified antibody 6.25-50 µg/ml as analyte
[6] = molecular target: T1, Recombinant canine CD40 extracellular domain with human IgG1 Fc domain tag (canine; human); test: SPR (Biacore T200), caCD40-Fc on the chip, antibody as analyte, 180 s contact
[7] = molecular target: T1, Recombinant canine CD40 extracellular domain with human IgG1 Fc domain tag (canine; human); test: SPR (Biacore T200), caCD40-Fc immobilised, purified antibody 6.25-50 µg/ml as analyte; response called unusual (possible aggregates or non-specific binding to the chip)
[8] = molecular target: T1, Recombinant canine CD40 extracellular domain with human IgG1 Fc domain tag (canine; human); test: SPR single-cycle kinetics, canine CD40-Fc immobilised; compared with parental mouse antibody SVX-2001

Binder | binding [5] | binding [6] | binding [8] | also measured
B1 | binds | binds |  | binding [1]: binds; binding [2]: binds; binding [3]: binds; binding [4]: binds
B2 | binds | binds |  | binding [7]: binds
B3 |  |  | binds | 
B4 |  |  | binds | 
B5 |  |  | binds | 
B6 |  |  | binds | 

Source: patent US20260146099A1 (SELVAX, published 2026)
